We go through 1 molecule from article PMC7137325.

No constants are given. Whether binding was seen depends on the method and setting. In cells and extracts the contact can be indirect. Some binding calls cover weakened binding; strength is not graded here.

For test [1], the target named is T1, AGGF1 (human (endogenous in K562)) (UniProt Q8N302).
T1 sequence: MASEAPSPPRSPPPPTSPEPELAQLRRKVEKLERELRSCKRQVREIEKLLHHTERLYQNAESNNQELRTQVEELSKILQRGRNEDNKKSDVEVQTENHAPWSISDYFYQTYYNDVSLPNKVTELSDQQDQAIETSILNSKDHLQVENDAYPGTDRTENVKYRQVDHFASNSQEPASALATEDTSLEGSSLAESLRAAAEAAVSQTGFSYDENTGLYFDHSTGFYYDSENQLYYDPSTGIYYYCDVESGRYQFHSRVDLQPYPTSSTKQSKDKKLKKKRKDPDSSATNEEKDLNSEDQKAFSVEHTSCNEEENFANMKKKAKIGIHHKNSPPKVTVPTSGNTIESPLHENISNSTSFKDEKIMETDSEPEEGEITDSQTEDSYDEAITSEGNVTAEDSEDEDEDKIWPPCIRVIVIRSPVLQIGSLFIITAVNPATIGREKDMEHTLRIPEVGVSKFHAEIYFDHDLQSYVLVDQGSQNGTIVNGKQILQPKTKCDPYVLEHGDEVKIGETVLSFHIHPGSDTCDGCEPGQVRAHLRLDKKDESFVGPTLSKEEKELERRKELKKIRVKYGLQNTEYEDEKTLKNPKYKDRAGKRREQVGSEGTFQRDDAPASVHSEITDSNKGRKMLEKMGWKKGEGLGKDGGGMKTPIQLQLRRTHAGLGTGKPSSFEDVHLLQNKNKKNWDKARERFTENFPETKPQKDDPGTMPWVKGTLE
The experiment in a line: condition: only high-salt wash buffers present in eCLIP; co-IP; immunoprecipitation from UV crosslinked K562 cells in high-salt wash conditions with standard eCLIP wash buffers, beads and reagents; western probed for HNRNPL.

Test [2] concerns the target T1, AGGF1 (human (endogenous in K562)). Briefly: co-IP; low-salt co-immunoprecipitation from UV crosslinked K562 cells; lysis buffer 50 mM Tris-HCl pH 7.5, 150 mM NaCl, 1% Triton X-100, 0.1% sodium deoxycholate, protease inhibitor; 5 washes in TBS + 0.05% NP-40; western probed for HNRNPL.
The target of test [3] is T2, RBFOX2 (human (endogenous in K562)) (UniProt O43251).
T2 sequence: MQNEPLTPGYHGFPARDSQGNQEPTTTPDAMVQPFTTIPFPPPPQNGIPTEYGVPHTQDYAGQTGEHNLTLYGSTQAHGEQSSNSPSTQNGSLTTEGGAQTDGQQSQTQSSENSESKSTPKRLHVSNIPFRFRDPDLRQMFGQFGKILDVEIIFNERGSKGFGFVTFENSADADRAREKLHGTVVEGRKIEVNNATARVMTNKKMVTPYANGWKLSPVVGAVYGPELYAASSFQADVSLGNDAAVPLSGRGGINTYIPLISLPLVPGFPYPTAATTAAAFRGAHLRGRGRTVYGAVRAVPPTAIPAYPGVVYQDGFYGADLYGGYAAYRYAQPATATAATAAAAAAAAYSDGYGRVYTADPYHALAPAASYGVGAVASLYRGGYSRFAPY
The test is described as above.

B1: HNRNPL (protein, UniProt P14866 1-589)
chain: MSRRLLPRAEKRRRRLEQRQQPDEQRRRSGAMVKMAAAGGGGGGGRYYGGGSEGGRAPKRLKTDNAGDQHGGGGGGGGGAGAAGGGGGGENYDDPHKTPASPVVHIRGLIDGVVEADLVEALQEFGPISYVVVMPKKRQALVEFEDVLGACNAVNYAADNQIYIAGHPAFVNYSTSQKISRPGDSDDSRSVNSVLLFTILNPIYSITTDVLYTICNPCGPVQRIVIFRKNGVQAMVEFDSVQSAQRAKASLNGADIYSGCCTLKIEYAKPTRLNVFKNDQDTWDYTNPNLSGQGDPGSNPNKRQRQPPLLGDHPAEYGGPHGGYHSHYHDEGYGPPPPHYEGRRMGPPVGGHRRGPSRYGPQYGHPPPPPPPPEYGPHADSPVLMVYGLDQSKMNCDRVFNVFCLYGNVEKVKFMKSKPGAAMVEMADGYAVDRAITHLNNNFMFGQKLNVCVSKQPAIMPGQSYGLEDGSCSYKDFSESRNNRFSTPEQAAKNRIQHPSNVLHFFNAPLEVTEENFFEICDELGVKRPSSVKVFSGKSERSSSGLLEWESKSDALETLGFLNHYQMKNPNGPYPYTLKLCFSTAQHAS
Consider B1, for which the figures for the binding result in test [1], in test [2] and in test [3] were “no binding”, “binds” and “no binding”, respectively.
